In paper doi:10.1101/2024.09.19.613872:
Results are given in words; binding and its absence hold for the method and conditions named. In cells and extracts the contact can be indirect. Some entries that bind do so weakly or less than the wild type. Sequences can lack the tags named with a protein.

B1: Flag-tagged Ulk4-EE-KR (human Ulk4 T1021E/T1023E/K1030R) (protein, UniProt Q96C45 1-1275)
chain: MENFILYEEIGRGSKTVVYKGRRKGTINFVAILCTDKCKRPEITNWVRLTREIKHKNIVTFHEWYETSNHLWLVVELCTGGSLKTVIAQDENLPEDVVREFGIDLISGLHHLHKLGILFCDISPRKILLEGPGTLKFSNFCLAKVEGENLEEFFALVAAEEGGGDNGENVLKKSMKSRVKGSPVYTAPEVVRGADFSISSDLWSLGCLLYEMFSGKPPFFSESISELTEKILCEDPLPPIPKDSSRPKASSDFINLLDGLLQRDPQKRLTWTRLLQHSFWKKAFAGADQESSVEDLSLSRNTMECSGPQDSKELLQNSQSRQAKGHKSGQPLGHSFRLENPTEFRPKSTLEGQLNESMFLLSSRPTPRTSTAVEVSPGEDMTHCSPQKTSPLTKITSGHLSQQDLESQMRELIYTDSDLVVTPIIDNPKIMKQPPVKFDAKILHLPTYSVDKLLFLKDQDWNDFLQQVCSQIDSTEKSMGASRAKLNLLCYLCVVAGHQEVATRLLHSPLFQLLIQHLRIAPNWDIRAKVAHVIGLLASHTAELQENTPVVEAIVLLTELIRENFRNSKLKQCLLPTLGELIYLVATQEEKKKNPRECWAVPLAAYTVLMRCLREGEERVVNHMAAKIIENVCTTFSAQSQGFITGEIGPILWYLFRHSTADSLRITAVSALCRITRHSPTAFQNVIEKVGLNSVINSLASAICKVQQYMLTLFAAMLSCGIHLQRLIQEKGFVSTIIRLLDSPSTCIRAKAFLVLLYILIYNREMLLLSCQARLVMYIERDSRKTTPGKEQQSGNEYLSKCLDLLICHIVQELPRILGDILNSLANVSGRKHPSTVQVKQLKLCLPLMPVVLHLVTSQVFRPQVVTEEFLFSYGTILSHIKSVDSGETNIDGAIGLTASEEFIKITLSAFEAIIQYPILLKDYRSTVVDYILPPLVSLVQSQNVEWRLFSLRLLSETTSLLVNQEFGDGKEKASVDSDSNLLALIRDVLLPQYEHILLEPDPVPAYALKLLVAMTEHNPEFERLVEESRLIPLIFEVTLEHQESILGNTMQSVIALLSNLVACKDSNMELLYEQGLVSHICNLLTETATLCLDVDNKNNNEMAAPLLFSLLDILHSMLTYTSGIVRLALQAQKSGSGEDPQAAEDLLLLNRPLTDLISLLIPLLPNEDPEIFDVSSKCLSILVQLYGGENPDSLSPENVEIFAHLLTSKEDPKEQKLLLRILRRMITSNEKHLESLKNAGSLLRALERLAPGSGSFADSAVAPLALEILQAVGH
B2: C-terminal fragment of Ulk4-EE from aa1004-aa1275, Flag-tagged (domain or fragment, UniProt Q96C45 1004-1275)
chain: VPAYALKLLVAMTEHNPEFERLVEESKLIPLIFEVTLEHQESILGNTMQSVIALLSNLVACKDSNMELLYEQGLVSHICNLLTETATLCLDVDNKNNNEMAAPLLFSLLDILHSMLTYTSGIVRLALQAQKSGSGEDPQAAEDLLLLNRPLTDLISLLIPLLPNEDPEIFDVSSKCLSILVQLYGGENPDSLSPENVEIFAHLLTSKEDPKEQKLLLRILRRMITSNEKHLESLKNAGSLLRALERLAPGSGSFADSAVAPLALEILQAVGH

Target: C-terminally HA-tagged wild type human Ulk4 (human) (UniProt Q96C45)
Assay: co-IP; HEK293T cells transfected with Fg-tagged and HA-tagged Ulk4 constructs; immunoprecipitation and western blot with the indicated antibodies; which tag was precipitated is not given

Binder	binding
B1	binds
B2	binds
